Results taken from PMC12313066.
Read-outs that look alike come from different tables or passages of the source. These are yes or no findings as the source states them, for the method shown. In cells and extracts the contact can be indirect. These calls come from enrichment with a bait or labelling near it, and not all partners need be listed.

Protein sequences, listed by entry. Tags and fused reporters are not part of them.
UniProt P16220: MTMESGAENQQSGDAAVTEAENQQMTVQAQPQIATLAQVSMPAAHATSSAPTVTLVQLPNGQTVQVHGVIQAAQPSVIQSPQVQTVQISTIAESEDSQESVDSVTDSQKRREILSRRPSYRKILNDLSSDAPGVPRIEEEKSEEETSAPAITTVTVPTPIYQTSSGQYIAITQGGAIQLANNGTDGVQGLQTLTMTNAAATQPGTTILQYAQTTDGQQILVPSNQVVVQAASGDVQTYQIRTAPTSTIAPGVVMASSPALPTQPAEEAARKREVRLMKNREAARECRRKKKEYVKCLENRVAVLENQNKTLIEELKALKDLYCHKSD
UniProt Q04206: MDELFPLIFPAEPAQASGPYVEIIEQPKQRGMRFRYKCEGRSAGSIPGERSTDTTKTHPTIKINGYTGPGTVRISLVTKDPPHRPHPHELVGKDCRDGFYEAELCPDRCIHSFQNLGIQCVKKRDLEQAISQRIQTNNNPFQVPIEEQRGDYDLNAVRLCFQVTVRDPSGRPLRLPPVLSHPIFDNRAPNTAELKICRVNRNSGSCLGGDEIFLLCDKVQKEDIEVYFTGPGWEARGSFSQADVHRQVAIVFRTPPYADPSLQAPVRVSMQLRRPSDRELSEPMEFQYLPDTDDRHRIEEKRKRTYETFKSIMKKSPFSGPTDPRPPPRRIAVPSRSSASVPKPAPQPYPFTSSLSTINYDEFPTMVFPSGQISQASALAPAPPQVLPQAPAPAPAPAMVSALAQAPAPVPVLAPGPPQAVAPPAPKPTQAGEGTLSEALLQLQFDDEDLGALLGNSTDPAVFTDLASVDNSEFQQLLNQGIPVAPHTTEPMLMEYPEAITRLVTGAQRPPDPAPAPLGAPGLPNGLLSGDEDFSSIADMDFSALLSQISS

Assays:
[1] = biological target: Tax-miniTurboID fusion protein (HTLV-1 transactivator Tax) (HTLV-1) (UniProt P03409); assay: proximity labelling; miniTurboID: HeLa S3 transfected with Tax-miniTurboID or empty control, 500 uM biotin for 6 hours, RIPA lysis, streptavidin agarose beads, DIA-LC/MS; fold change > 1.2 over control considered positive
[2] = biological target: Tax-miniTurboID fusion protein (HTLV-1 transactivator Tax) (HTLV-1) (UniProt P03409); assay: as above; remark: listed apart in the source

With EP300 (from UniProt Q09472 1-2414) the binding [1] was “binds”.

In the case of CREB1 (from UniProt P16220 1-327), the binding [1] is reported as “binds”.

RELA (from UniProt Q04206 1-551) was tested, and the binding [1] was “binds”.

B1: G-patch domain containing 1 (GPATCH1), endogenous (protein, UniProt Q9BRR8 1-931)
chain: MAARDSDSEEDLVSYGTGLEPLEEGERPKKPIPLQDQTVRDEKGRYKRFHGAFSGGFSAGYFNTVGSKEGWTPSTFVSSRQNRADKSVLGPEDFMDEEDLSEFGIAPKAIVTTDDFASKTKDRIREKARQLAAATAPIPGATLLDDLITPAKLSVGFELLRKMGWKEGQGVGPRVKRRPRRQKPDPGVKIYGCALPPGSSEGSEGEDDDYLPDNVTFAPKDVTPVDFTPKDNVHGLAYKGLDPHQALFGTSGEHFNLFSGGSERAGDLGEIGLNKGRKLGISGQAFGVGALEEEDDDIYATETLSKYDTVLKDEEPGDGLYGWTAPRQYKNQKESEKDLRYVGKILDGFSLASKPLSSKKIYPPPELPRDYRPVHYFRPMVAATSENSHLLQVLSESAGKATPDPGTHSKHQLNASKRAELLGETPIQGSATSVLEFLSQKDKERIKEMKQATDLKAAQLKARSLAQNAQSSRAQLSPAAAAGHCSWNMALGGGTATLKASNFKPFAKDPEKQKRYDEFLVHMKQGQKDALERCLDPSMTEWERGRERDEFARAALLYASSHSTLSSRFTHAKEEDDSDQVEVPRDQENDVGDKQSAVKMKMFGKLTRDTFEWHPDKLLCKRFNVPDPYPDSTLVGLPRVKRDKYSVFNFLTLPETASLPTTQASSEKVSQHRGPDKSRKPSRWDTSKHEKKEDSISEFLSLARSKAEPPKQQSSPLVNKEEEHAPELSANQTVNKDVDAQAEGEGSRPSMDLFRAIFASSSDEKSSSSEDEQGDSEDDQAGSGEANFQSSQDTDLGETSSVAHALVPAPQEPPPSFPIQKMQIDEREEFGPRLPPVFCPNARQTLEVPQKEKHKKNKDKHKAKKEHRRKKEKKKKHRKHKHKGKQKNKKPEKSSSSESSDSSDSQSDEETADVSPQELLRRLKSLPLRRQ
With B1 the binding [2] was “binds”.

B2: WD repeat domain 83 (WDR83), endogenous (protein, UniProt Q9BRX9 1-315)
chain: MAFPEPKPRPPELPQKRLKTLDCGQGAVRAVRFNVDGNYCLTCGSDKTLKLWNPLRGTLLRTYSGHGYEVLDAAGSFDNSSLCSGGGDKAVVLWDVASGQVVRKFRGHAGKVNTVQFNEEATVILSGSIDSSIRCWDCRSRRPEPVQTLDEARDGVSSVKVSDHEILAGSVDGRVRRYDLRMGQLFSDYVGSPITCTCFSRDGQCTLVSSLDSTLRLLDKDTGELLGEYKGHKNQEYKLDCCLSERDTHVVSCSEDGKVFFWDLVEGALALALPVGSGVVQSLAYHPTEPCLLTAMGGSVQCWREEAYEAEDGAG
For B2, the binding [2] was “binds”.
